Source: paper PMC8552907
These are yes or no findings as the source states them, for the method shown. In cells and extracts the contact can be indirect. Binding calls can cover weak binding; strength is not graded here.

Protein sequences, listed by entry. Tags and fused reporters are not part of them. Lines headed by an entry give the natural chain unless they say otherwise; changes in a name come on top.
UniProt Q13838: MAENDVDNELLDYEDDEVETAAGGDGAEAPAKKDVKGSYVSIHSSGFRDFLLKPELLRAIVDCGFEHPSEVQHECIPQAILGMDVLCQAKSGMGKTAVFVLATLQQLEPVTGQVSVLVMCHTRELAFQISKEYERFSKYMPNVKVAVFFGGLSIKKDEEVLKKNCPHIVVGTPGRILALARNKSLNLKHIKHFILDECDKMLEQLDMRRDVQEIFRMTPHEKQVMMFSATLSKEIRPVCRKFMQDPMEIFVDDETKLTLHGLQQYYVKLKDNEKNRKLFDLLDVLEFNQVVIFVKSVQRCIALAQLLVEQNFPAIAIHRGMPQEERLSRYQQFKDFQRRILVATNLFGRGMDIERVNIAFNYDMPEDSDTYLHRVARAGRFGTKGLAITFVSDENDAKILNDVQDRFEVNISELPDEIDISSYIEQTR
UniProt P07711: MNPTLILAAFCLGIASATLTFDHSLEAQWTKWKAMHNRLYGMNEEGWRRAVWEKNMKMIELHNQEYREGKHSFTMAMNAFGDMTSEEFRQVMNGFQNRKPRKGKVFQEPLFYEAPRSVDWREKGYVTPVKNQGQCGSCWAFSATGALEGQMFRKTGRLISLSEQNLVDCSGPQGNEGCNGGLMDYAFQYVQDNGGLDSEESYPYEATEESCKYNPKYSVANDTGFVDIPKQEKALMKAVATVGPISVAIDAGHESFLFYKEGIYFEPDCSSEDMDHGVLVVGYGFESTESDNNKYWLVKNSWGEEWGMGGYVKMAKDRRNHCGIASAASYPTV

Target: Strep-HA-tagged DDX39B (human) (UniProt Q13838)
Assay: co-IP

binding: binds
Substance: V5-tagged CTSL (from UniProt P07711) (enzyme)
